Laboratory results as given in the supplement of paper PMC12873370.
Where “and” joins values, the source holds several entries; their conditions need not be identical. Equal entries are not always repeated. This is one part of the list. Single values are uncertain, as repeats are few or missing.

Legend:
[1] = system: MEPP (mouse ovarian epithelium Trp53/Pten KO); test: cell viability relative to untreated (fraction); higher = less growth inhibition; settings: 5 µM; 3 days
[2] = system: PREPP (mouse prostate epithelium Trp53/Pten KO); test: as above; settings: 5 µM; 3 days

SMILES	cell viability [1]	cell viability [2]
Cc1onc(-c2ccccc2Cl)c1C(=O)N[C@@H]1C(=O)N2[C@@H]1SC(C)(C)[C@@H]2C(=O)O	1.08	0.897
C[C@@H](N)C(=O)O	0.958	0.97
O=C(O)c1ncccc1O	0.94	1.1
COc1c(C)c2c(c(O)c1C/C=C(\C)CCC(=O)O)C(=O)OC2	0.417	0.598
C[C@H]1[C@H](C)CC[C@]2(C(=O)O)CC[C@]3(C)C(=CC[C@@H]4[C@@]5(C)CC[C@H](O)C(C)(C)[C@@H]5CC[C@]43C)[C@H]12	0.816	1.27
O=C(O)Cc1cccc2ccccc12	0.973	1.05
COc1ccc(CO)cc1OC	0.925	1.02
C[N+](C)(C)CCOP(=O)(O)OP(=O)([O-])OC[C@H]1O[C@@H](n2ccc(N)nc2=O)[C@H](O)[C@@H]1O	1.16 and 1.08	0.951 and 1.03
COc1cc(C(C)=O)ccc1O	1.15	0.96
O=C(O)CCCCCCCCCC(=O)O	1.13	0.773
Clc1ncnc2nc[nH]c12	0.941	1
Cn1c(=O)c2c(ncn2C)n(C)c1=O	1.02	1.03
CNC(=O)c1cccnc1	0.851	1.01
NCCCS(=O)(=O)O	0.847	0.829
C[C@@H]1O[C@@H](OC[C@H]2O[C@@H](OCCc3ccc(O)c(O)c3)[C@H](O)[C@@H](O)[C@@H]2OC(=O)/C=C/c2ccc(O)c(O)c2)[C@H](O)[C@H](O)[C@H]1O	1.09	0.762
CCC(C)C(NC(=O)C(C(C)CC)N(C)C(C)=O)C(=O)NC(C(=O)NC(CC(C)C)C(=O)C1(C)CO1)C(C)O (centres undefined)	0.636	0.618
O=C(O)c1cccc(O)c1O	0.941	0.873
COc1ccc(C=CC(=O)O)cc1OC	0.94	1.1
CCCCCCCCCCCCCCCCCC(=O)O	0.911	0.871
CCN(CC)CCOC(=O)c1ccc(N)cc1	0.72	1.02
C=CCc1ccc(O)c(-c2cc(CC=C)ccc2O)c1	1.97	0.846

SMILES	cell viability [1]	cell viability [2]
COc1cc(O)c2c(c1)C(=O)c1cc(C)cc(O)c1C2=O	0.781	1.48
O[C@@H]1[C@@H](O)[C@@H]2OC[C@@H](O2)[C@H]1O	1.41	1.03
COc1ccccc1/C=C/C(=O)O	1.04	0.946
O=C1c2c(O)cc(O)cc2OC(c2ccc(O)c(O)c2)C1O (centres undefined)	1.37	1.47
OCC(O)CO	0.999	0.994
COc1ccc(C[C@H](N)C(=O)N[C@H]2[C@@H](O)[C@H](n3cnc4c(N(C)C)ncnc43)O[C@@H]2CO)cc1	0.415	0.302
O=C(/C=C/c1ccc(O)c(O)c1)c1ccc(O)cc1O	1.09	0.894
CN(C)c1ncnc2nc[nH]c12	1.05	0.938
C[C@@H]1CC[C@@]2(NC1)O[C@H]1C[C@H]3[C@@H]4CC=C5C[C@@H](O[C@@H]6O[C@H](CO)[C@H](O)[C@H](O[C@@H]7O[C@H](CO)[C@@H](O)[C@H](O)[C@H]7O)[C@H]6O[C@@H]6O[C@@H](C)[C@H](O)[C@@H](O)[C@H]6O)CC[C@]5(C)[C@H]4CC[C@]3(C)[C@H]1[C@@H]2C	0.895	0.996
O=c1cc(-c2ccc(O)cc2)oc2c([C@@H]3O[C@H](CO)[C@@H](O)[C@H](O)[C@H]3O)c(O)cc(O)c12	1.86	0.872
N=C(N)NS(=O)(=O)c1ccc(N)cc1	1.19	0.935
Nc1ccc(C(=O)NCC(=O)O)cc1	1.07	0.91
C=C1C[C@@]23CC[C@H]4[C@@](C)(CCC[C@@]4(C)C(=O)O)[C@@H]2CC[C@]1(O[C@@H]1O[C@@H](CO)[C@@H](O)[C@H](O)[C@@H]1O[C@@H]1O[C@@H](CO)[C@@H](O)[C@H](O)[C@@H]1O)C3	0.787	0.838
O=C(O)c1ccc[n+]([O-])c1	0.886	0.964
NC(N)=NCCCC[C@H](N)C(=O)O	1.17 and 1.07	1.07 and 0.867
CSCCC(N)C(=O)O (centres undefined)	1	1.1
C[C@@H](c1ncncc1F)[C@](O)(Cn1cncn1)c1ccc(F)cc1F	1.06	0.947
OC[C@@H](O)[C@@H](O)[C@H](O)[C@H](O)CO	0.906	0.89
Cc1cc(C(=O)O)ccc1O	0.935	1.15
CN(C)CCCN1c2ccccc2Sc2ccc(Cl)cc21	1.04	1.01
CC1(C)S[C@@H]2[C@H](NC(=O)[C@H](N)c3ccc(O)cc3)C(=O)N2[C@H]1C(=O)O	1.06 and 0.798	0.839 and 1.01

An excerpt of these results, field by field:
C[C@@H]1CC[C@@]2(NC1)O[C@H]1C[C@H]3[C@@H]4CC=C5C[C@@H](O[C@@H]6O[C@H](CO)[C@H](O)[C@H](O[C@@H]7O[C@H](CO)[C@@H](O)[C@H](O)[C@H]7O)[C@H]6O[C@@H]6O[C@@H](C)[C@H](O)[C@@H](O)[C@H]6O)CC[C@]5(C)[C@H]4CC[C@]3(C)[C@H]1[C@@H]2C
  cell viability [1]: 0.895
  cell viability [2]: 0.996
O=c1cc(-c2ccc(O)cc2)oc2c([C@@H]3O[C@H](CO)[C@@H](O)[C@H](O)[C@H]3O)c(O)cc(O)c12
  cell viability [1]: 1.86
  cell viability [2]: 0.872
N=C(N)NS(=O)(=O)c1ccc(N)cc1
  cell viability [1]: 1.19
  cell viability [2]: 0.935
